Experimental data published in PMC7819943, “Rice protein-binding microarrays: a tool to detect cis-acting elements near promoter regions in rice”.
This is one part of the list.

Sequences of proteins named here, by UniProt entry; tags and fusion partners are left off.
UniProt Q0JBA9, entry or part of it: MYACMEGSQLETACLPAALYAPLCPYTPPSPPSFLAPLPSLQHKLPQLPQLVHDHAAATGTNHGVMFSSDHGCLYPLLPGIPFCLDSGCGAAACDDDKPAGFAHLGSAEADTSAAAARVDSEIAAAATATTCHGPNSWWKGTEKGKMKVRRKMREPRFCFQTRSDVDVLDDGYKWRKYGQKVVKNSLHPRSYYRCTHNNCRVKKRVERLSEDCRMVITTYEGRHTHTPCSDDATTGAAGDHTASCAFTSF

Each sequence was assayed against OsWRKY34 (Oryza sativa, UniProt Q0JBA9 1-250) (assay: protein-binding microarray (RPBM); PBS, 2% BSA, 51.3 ng/ul salmon testes DNA, 50 uM zinc acetate, 200 nM TF, 25 C, 1 h; high values mean tight binding). Conditions: protein: recombinant; tags: N-terminal polyhistidine and DsRed monomer fusion (pET32a); label: CyDye5-dUTP incorporated in the synthesized complementary strand; 3' TTTTT single-stranded linker to array surface; dsDNA, one strand shown.
Method in brief: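 Per-feature fluorescence intensity (arbitrary units), read on an Axon 4000B scanner, is the binding signal. Transcription factors carrying an N-terminal polyhistidine tag and DsRed fusion were expressed in E. coli BL21-CodonPlus and purified on Ni–NTA. A custom Agilent array, made double-stranded by primer extension with Cy5-dUTP and blocked with 2% BSA, was incubated with 200 nM protein in PBS, 2% BSA, salmon testes DNA and 50 µM zinc acetate at 25 °C for 1 h and then washed.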

Row | Sequence | binding signal
1 | ACCTGACCGTCTCAAGCCAACCCACGAAGTTCCAAATTTTCGGAGTCACCTAGTGCAG | 8390 fluorescence intensity (a.u.)
2 | ACCCGATCCACTCTCAGCCAGCGCCACCGCCACCGGATCCCGGAGTCACCTAGTGCAG | 9560 fluorescence intensity (a.u.)
3 | AAGGAAGGGGATGGGCGGCGGAGGCGGGGAGTAGGACGGCCGGAGTCACCTAGTGCAG | 8160 fluorescence intensity (a.u.)
4 | GGTAACTTGCACTGTGGAGTATGTGGCTAATGGGGTTCTTCGGAGTCACCTAGTGCAG | 8830 fluorescence intensity (a.u.)
5 | TCAACCTCACGCTCACATTCTTGCTAGCTCACTCCTCTCCCGGAGTCACCTAGTGCAG | 10300 fluorescence intensity (a.u.)
6 | TATTTGTTTGGCTATCATCTTAGGAGTACATATATGCCAACGGAGTCACCTAGTGCAG | 9560 fluorescence intensity (a.u.)
7 | GCCTGCTCTGTTTCTCTGGTCTCGGCCCACAAACGATTCGCGGAGTCACCTAGTGCAG | 9330 fluorescence intensity (a.u.)
8 | CTCGCCGCGTGCTCCTTTACTGCTCTCTGCTCGCGCAGGACGGAGTCACCTAGTGCAG | 9230 fluorescence intensity (a.u.)
9 | CATATATTATAGAAGTTACTTTCTTTTTGTTATAAGTTACCGGAGTCACCTAGTGCAG | 8280 fluorescence intensity (a.u.)
10 | ACGCGCGGCCTAGTTGTGTGTGGGTGTGTGAGGTGAGGGGCGGAGTCACCTAGTGCAG | 11000 fluorescence intensity (a.u.)
11 | GCACAGTTGATCCAGCAGGTTTATTTTATTGATTTCTTTTCGGAGTCACCTAGTGCAG | 10600 fluorescence intensity (a.u.)
12 | CGGCTATTGTTTTTGCTTCAGTGGGTGGGATCCAGGAAGACGGAGTCACCTAGTGCAG | 13800 fluorescence intensity (a.u.)
13 | GCCCAATATCATCTGGCCCAATAATAGCCCACACAACCCTCGGAGTCACCTAGTGCAG | 8550 fluorescence intensity (a.u.)
14 | TGCACCTAGGTGTACATGTCATTGTGTGTTTGTGGTTGGTCGGAGTCACCTAGTGCAG | 8200 fluorescence intensity (a.u.)
15 | GCCTTTCCTTCCGATCTCTCTCCCTCTCTCTCTTCTTCTTCGGAGTCACCTAGTGCAG | 8100 fluorescence intensity (a.u.)
16 | TTCATGATAAGTACTCATTCCATATTTTAATTTTAATGTACGGAGTCACCTAGTGCAG | 8050 fluorescence intensity (a.u.)
17 | ATATTTTACGTGCGACTATTTTTTTTACCTTTTTTTTTTCCGGAGTCACCTAGTGCAG | 10300 fluorescence intensity (a.u.)
18 | GTTTAACCGTTCATTTTATTTAAAATTTTTTTATAATTACCGGAGTCACCTAGTGCAG | 8100 fluorescence intensity (a.u.)
19 | GGTCATTCCTGTGTTTTGTAATCCTCTGTTTTATACTTATCGGAGTCACCTAGTGCAG | 10600 fluorescence intensity (a.u.)
20 | ACACAATCCATGTCATTTAAAATTTCAAAGTTGAAATTTACGGAGTCACCTAGTGCAG | 8380 fluorescence intensity (a.u.)
21 | AGTTAGACCGGCACCACCTCGAGCATTATACATAGAATAACGGAGTCACCTAGTGCAG | 9480 fluorescence intensity (a.u.)
22 | GGTGTATGACTACACCTATGAAGGTGGGCTTTTAATATGACGGAGTCACCTAGTGCAG | 8210 fluorescence intensity (a.u.)
23 | TTTGCAGGTCTTGCTTCTTTTGTTTGTATGTTAACATCTTCGGAGTCACCTAGTGCAG | 8490 fluorescence intensity (a.u.)
24 | TGCTGGGTTGTTTAACCACTTTCTTCATCAATCTGTCTCTCGGAGTCACCTAGTGCAG | 8840 fluorescence intensity (a.u.)
25 | GAGTGTGATCTTCCACATTTGTTTGTTAGTGCATTAACCCCGGAGTCACCTAGTGCAG | 8130 fluorescence intensity (a.u.)
26 | CTTGCTACCTCTCGCGTCTCCGTCTCTGCGTTGCATTGCACGGAGTCACCTAGTGCAG | 8800 fluorescence intensity (a.u.)
27 | CTACAAGAGATCCATGTTAGCATATTTTTCTACTTGAAAGCGGAGTCACCTAGTGCAG | 8460 fluorescence intensity (a.u.)

Row | Sequence | binding signal
28 | CTTCTGCCAACGGAGGTGTGTCGTGTTCTCTCGGCCGTTGCGGAGTCACCTAGTGCAG | 8260 fluorescence intensity (a.u.)
29 | CTCCTCCGCAACCGCCTTACGCCACCGCCTCTCGCCGCCTCGGAGTCACCTAGTGCAG | 10600 fluorescence intensity (a.u.)
30 | AAACTGTTATGCATGTCCTATCTTTGTATCCTTCAATTCACGGAGTCACCTAGTGCAG | 11000 fluorescence intensity (a.u.)
31 | TTCCTTTTATTTTTCACTGCGACTGGCTGTCGAGAGCGAGCGGAGTCACCTAGTGCAG | 8730 fluorescence intensity (a.u.)
32 | TTGCAAGTTCATTTCTACATGAGCTTTTGACCAGGCCTCTCGGAGTCACCTAGTGCAG | 9130 fluorescence intensity (a.u.)
33 | CGTGCGCGCTGGAGGAGGTGGAGGTGGAGGTGGTGGTGTCCGGAGTCACCTAGTGCAG | 10100 fluorescence intensity (a.u.)
34 | TTTCCTTTTTCCTCCCTGCCGCCGCACAAAGCGCTCGAGCCGGAGTCACCTAGTGCAG | 8850 fluorescence intensity (a.u.)
35 | TAACAACAAGGAATTTATCATGTATTACTGCGACCATTACCGGAGTCACCTAGTGCAG | 8360 fluorescence intensity (a.u.)
36 | TGCAAGTTTAGGGATCGGGATGACACAGTTGAATAAGTTTCGGAGTCACCTAGTGCAG | 10000 fluorescence intensity (a.u.)
37 | GGCAGCTGGCTCAAGAGCTCCGGGCGGGTCAAGGTCTCCTCGGAGTCACCTAGTGCAG | 8270 fluorescence intensity (a.u.)
38 | AATGTGCTTTATGTTTGTCTGTATATCTTCAAAGGTGACACGGAGTCACCTAGTGCAG | 11600 fluorescence intensity (a.u.)
39 | GTCCATTTCAAATATACTCGCCTGTGTTCCCGTGCGTTGACGGAGTCACCTAGTGCAG | 11100 fluorescence intensity (a.u.)
40 | AATAATGATATCGTTTCCGACCATTTCTGATAGTTTTCATCGGAGTCACCTAGTGCAG | 10400 fluorescence intensity (a.u.)
41 | GATTGATGTCATTTTCAACCATACCATTTTTTTAAAGTTTCGGAGTCACCTAGTGCAG | 8220 fluorescence intensity (a.u.)
42 | TTCGTCTTCGCCACCGTCTCTGTGCGGTATAGCTCTCTCTCGGAGTCACCTAGTGCAG | 8620 fluorescence intensity (a.u.)
43 | GACTAGCTCAAATGTGTCTCAAACAGTCGTTCCCGGAACACGGAGTCACCTAGTGCAG | 9140 fluorescence intensity (a.u.)
44 | CCGCCGCCCGCCATCGCCATCCACCGCCGCCGCCGCGCCGCGGAGTCACCTAGTGCAG | 11400 fluorescence intensity (a.u.)
45 | TCTCATATATGGCCTTGTTTGGCATAGGTTTGGATCCAAGCGGAGTCACCTAGTGCAG | 8290 fluorescence intensity (a.u.)
46 | TGGGTTGGGTTTGTTCTGGCTCGCACACAGCTCAGCAGCTCGGAGTCACCTAGTGCAG | 13500 fluorescence intensity (a.u.)
47 | GCATCTTGATCTTCTTCTTCTTCTTATTATTATTATTATTCGGAGTCACCTAGTGCAG | 11300 fluorescence intensity (a.u.)
48 | TCATCCCCAAGACCTCAGCCAGGCACGCCACGCACCCACCCGGAGTCACCTAGTGCAG | 9940 fluorescence intensity (a.u.)
49 | GCTTTTCTATTCACCAAACTCCCAGCTTGCCGGCAACGTCCGGAGTCACCTAGTGCAG | 10000 fluorescence intensity (a.u.)
50 | TTTCCGGTTTTTCCAATATTTTTCGATACCGTTTTCATTTCGGAGTCACCTAGTGCAG | 12800 fluorescence intensity (a.u.)
51 | TGATTTGTGGATTTGTGGATGGGCATGTATTGTGGATTATCGGAGTCACCTAGTGCAG | 10900 fluorescence intensity (a.u.)
52 | ACCTTACCTGCAGTGCTGCTTTCTCAAATCTTGCGACACCCGGAGTCACCTAGTGCAG | 9070 fluorescence intensity (a.u.)
53 | ACGATGGTGATGGGAGTAAATCTGTTATTCTACTTGTGCTCGGAGTCACCTAGTGCAG | 9080 fluorescence intensity (a.u.)
54 | TTTTTATCTTAGTACTCCCTCCGTGTCTTTTTTATCTAAACGGAGTCACCTAGTGCAG | 11500 fluorescence intensity (a.u.)

Some of the entries so far, as tab-separated lines:
Row	Sequence	binding signal
49	GCTTTTCTATTCACCAAACTCCCAGCTTGCCGGCAACGTCCGGAGTCACCTAGTGCAG	10000 fluorescence intensity (a.u.)
50	TTTCCGGTTTTTCCAATATTTTTCGATACCGTTTTCATTTCGGAGTCACCTAGTGCAG	12800 fluorescence intensity (a.u.)
51	TGATTTGTGGATTTGTGGATGGGCATGTATTGTGGATTATCGGAGTCACCTAGTGCAG	10900 fluorescence intensity (a.u.)
52	ACCTTACCTGCAGTGCTGCTTTCTCAAATCTTGCGACACCCGGAGTCACCTAGTGCAG	9070 fluorescence intensity (a.u.)
